Consider 1 substance from publication PMC3424240.

Chains of the proteins cited; added tags and fusions are not shown. Lines headed by an entry give the natural chain unless they say otherwise; changes in a name come on top.
UniProt Q96T37: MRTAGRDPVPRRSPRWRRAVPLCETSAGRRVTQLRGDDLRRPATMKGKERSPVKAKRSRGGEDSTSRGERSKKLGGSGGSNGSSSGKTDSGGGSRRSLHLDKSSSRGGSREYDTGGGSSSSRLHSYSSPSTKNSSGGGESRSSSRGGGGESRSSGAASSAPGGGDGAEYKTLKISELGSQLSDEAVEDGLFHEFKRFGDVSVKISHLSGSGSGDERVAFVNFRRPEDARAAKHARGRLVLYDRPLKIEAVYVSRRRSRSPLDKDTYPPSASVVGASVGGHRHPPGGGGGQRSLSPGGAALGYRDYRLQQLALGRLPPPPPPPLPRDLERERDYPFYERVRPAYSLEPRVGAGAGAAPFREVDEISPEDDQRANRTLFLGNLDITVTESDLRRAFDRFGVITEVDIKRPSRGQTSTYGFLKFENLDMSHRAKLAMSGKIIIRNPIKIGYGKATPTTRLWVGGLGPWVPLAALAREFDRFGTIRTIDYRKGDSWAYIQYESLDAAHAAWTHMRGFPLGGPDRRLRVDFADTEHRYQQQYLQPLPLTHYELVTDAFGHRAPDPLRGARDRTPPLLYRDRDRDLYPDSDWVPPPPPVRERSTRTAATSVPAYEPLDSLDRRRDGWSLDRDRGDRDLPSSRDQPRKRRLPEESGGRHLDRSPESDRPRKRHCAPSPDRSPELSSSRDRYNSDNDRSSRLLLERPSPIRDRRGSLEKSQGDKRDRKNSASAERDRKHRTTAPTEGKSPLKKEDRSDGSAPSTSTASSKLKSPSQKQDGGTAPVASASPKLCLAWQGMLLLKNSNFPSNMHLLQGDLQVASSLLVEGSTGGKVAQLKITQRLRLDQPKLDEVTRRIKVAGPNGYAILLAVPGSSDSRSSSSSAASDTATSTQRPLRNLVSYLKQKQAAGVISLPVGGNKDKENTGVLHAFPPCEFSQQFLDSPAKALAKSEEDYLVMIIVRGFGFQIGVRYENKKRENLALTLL
UniProt Q9UPS6: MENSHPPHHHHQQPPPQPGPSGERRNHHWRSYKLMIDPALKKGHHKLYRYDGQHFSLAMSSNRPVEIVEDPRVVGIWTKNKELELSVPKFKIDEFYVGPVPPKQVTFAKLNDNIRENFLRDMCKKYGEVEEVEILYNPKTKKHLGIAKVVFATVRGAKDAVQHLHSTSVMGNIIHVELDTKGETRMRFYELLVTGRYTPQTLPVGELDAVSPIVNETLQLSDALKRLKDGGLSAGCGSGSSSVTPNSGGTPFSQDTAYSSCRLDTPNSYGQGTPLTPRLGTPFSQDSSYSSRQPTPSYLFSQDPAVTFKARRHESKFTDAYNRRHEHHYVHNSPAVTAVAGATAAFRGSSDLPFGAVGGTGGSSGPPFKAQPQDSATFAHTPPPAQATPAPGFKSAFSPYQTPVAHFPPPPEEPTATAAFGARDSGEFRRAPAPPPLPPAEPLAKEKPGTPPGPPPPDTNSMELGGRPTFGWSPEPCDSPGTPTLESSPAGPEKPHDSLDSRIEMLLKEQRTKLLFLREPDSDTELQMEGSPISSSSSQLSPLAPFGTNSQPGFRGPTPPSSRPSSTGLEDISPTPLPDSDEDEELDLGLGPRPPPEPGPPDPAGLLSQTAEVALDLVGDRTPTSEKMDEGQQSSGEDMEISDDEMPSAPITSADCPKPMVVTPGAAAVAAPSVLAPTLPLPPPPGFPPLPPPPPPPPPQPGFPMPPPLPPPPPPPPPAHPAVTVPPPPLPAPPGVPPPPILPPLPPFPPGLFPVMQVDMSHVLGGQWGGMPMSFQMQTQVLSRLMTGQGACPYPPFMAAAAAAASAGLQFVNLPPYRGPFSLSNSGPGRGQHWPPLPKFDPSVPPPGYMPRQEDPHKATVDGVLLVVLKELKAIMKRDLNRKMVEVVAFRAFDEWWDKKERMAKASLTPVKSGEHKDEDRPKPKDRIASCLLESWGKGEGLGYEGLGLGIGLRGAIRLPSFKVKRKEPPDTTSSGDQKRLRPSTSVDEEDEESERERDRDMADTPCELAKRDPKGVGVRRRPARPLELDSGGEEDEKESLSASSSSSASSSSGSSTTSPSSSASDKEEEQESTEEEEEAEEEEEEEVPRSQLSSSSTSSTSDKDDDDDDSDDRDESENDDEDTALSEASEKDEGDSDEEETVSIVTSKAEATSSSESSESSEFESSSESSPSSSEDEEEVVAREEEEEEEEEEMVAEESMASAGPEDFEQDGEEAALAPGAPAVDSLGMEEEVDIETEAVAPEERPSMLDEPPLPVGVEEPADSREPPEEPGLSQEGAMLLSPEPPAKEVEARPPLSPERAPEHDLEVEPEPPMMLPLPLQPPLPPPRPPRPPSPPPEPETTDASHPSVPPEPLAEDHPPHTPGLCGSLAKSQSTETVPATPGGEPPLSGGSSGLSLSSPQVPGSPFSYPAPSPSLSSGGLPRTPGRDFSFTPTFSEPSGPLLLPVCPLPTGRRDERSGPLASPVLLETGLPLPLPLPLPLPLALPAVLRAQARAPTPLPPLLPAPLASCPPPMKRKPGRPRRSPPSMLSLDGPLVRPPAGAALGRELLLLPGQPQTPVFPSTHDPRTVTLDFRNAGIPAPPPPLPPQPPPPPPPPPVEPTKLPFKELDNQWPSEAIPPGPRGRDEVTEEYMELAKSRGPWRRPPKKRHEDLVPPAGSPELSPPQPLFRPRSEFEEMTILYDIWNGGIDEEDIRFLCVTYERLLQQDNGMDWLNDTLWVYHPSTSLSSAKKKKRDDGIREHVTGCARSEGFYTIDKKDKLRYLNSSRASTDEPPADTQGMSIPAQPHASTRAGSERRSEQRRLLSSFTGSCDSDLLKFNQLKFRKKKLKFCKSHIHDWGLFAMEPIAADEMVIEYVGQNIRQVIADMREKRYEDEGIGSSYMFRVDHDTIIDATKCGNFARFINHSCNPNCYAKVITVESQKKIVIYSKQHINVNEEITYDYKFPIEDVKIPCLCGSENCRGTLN

The target of assay [1] is FLAG-Rbm15 mutated at K938 (human) (UniProt Q96T37). The assay is described as follows: co-IP; FLAG immunoprecipitation from whole cell extracts of transiently transfected HEK293 cells, Western blotting for endogenous partners.
The target of assay [2] is FLAG-Rbm15 mutated at K942 (human) (UniProt Q96T37). Described as above.

Results are given in words; binding and its absence hold for the method and conditions named. In cells and extracts the contact can be indirect. A result given as binding can be weak or reduced; the word gives no strength.

“endogenous Setd1b (from UniProt Q9UPS6 1-1966)”: the binding entry in assay [1] and in assay [2] was “binds” throughout.
